Library screening results

Chains of the proteins cited; added tags and fusions are not shown.
UniProt E9BF75, entry or part of it: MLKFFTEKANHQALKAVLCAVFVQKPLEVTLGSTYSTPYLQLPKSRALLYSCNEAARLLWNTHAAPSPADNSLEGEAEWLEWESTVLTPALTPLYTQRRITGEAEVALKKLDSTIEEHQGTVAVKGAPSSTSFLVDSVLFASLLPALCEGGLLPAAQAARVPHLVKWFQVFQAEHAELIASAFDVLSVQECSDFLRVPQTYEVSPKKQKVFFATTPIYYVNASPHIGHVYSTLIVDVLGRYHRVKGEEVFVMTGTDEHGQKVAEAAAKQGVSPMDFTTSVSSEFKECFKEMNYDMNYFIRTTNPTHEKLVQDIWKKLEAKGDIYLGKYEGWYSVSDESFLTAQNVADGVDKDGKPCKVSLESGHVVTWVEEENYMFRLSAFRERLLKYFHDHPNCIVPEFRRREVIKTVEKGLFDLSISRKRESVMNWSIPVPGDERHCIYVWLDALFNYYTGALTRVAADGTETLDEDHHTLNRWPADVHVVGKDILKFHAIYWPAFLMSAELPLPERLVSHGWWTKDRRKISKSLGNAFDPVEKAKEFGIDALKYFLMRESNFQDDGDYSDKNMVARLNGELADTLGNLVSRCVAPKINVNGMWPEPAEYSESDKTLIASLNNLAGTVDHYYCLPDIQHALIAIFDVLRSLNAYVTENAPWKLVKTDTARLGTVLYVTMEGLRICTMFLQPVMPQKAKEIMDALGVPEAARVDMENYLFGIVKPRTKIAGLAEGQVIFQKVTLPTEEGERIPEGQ

Source: ChEMBL document CHEMBL3988442, “University of Dundee, Small-Polar-MMV Screening Library” (2021).

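Primary screen of methionyl-tRNA synthetase; the read-out is not stated. Target: Methionyl-tRNA synthetase (putative), Leishmania donovani (UniProt E9BF75). The test concentration is not given. The values are filed as inhibition. Of about 68,000 compounds tested this way, about 24 (0.035%) reached 50% or more in at least one test.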

All values are in %.
How 0% and 100% were set is not recorded. Most values in the screen are low, and negative values occur.
This is an unselected part of the compounds tested.

| # | Compound | inhibition |
|---|---|---|
| 1 | `CC(Cn1cccn1)NCc1csc(Cc2ccccc2)n1` (stereo not given) | 15.64% |
| 2 | `Cc1ncccc1CNCC1CCCN1c1cccnn1` (stereo not given) | 15.3% |
| 3 | `CC(C)N1[C@H](CN(C)C)C[C@@H]2CN(c3ncc(F)cn3)CC[C@@H]21` | -1.742% |
| 4 | `Cc1ccoc1C(=O)N1CCc2ncnc(-c3cnn(C)c3)c2CC1` | 1.015% |
| 5 | `CO[C@H]1CCN(C(=O)c2ccsc2)[C@@H]2CN(CC3CC3)C[C@H]12` | 15.13% |
| 6 | `CCC1CN(C(=O)c2ccccc2N2CCCC2)CCN1C(C)C` (stereo not given) | 12.59% |
| 7 | `CCc1ncc2c(n1)CN(CCCOc1ccc(C#N)cc1)CC2` | 12.4% |
| 8 | `Cc1cc(S(=O)(=O)NC(=O)CCc2cncc(F)c2)c(C)s1` | 11.02% |
| 9 | `COc1ccc(-c2nnc(CN3CCCC3Cn3cncn3)o2)cc1` (stereo not given) | 6.25% |
| 10 | `Fc1ccccc1CN1CCC(c2noc(-c3ccccn3)n2)CC1` | 14.56% |
| 11 | `CCOC(=O)c1ccc(S(=O)(=O)NCc2cccnc2N(C)C)cc1` | 1.408% |
| 12 | `CN(C)C(=O)N1CC2(CCOCC2)c2cc(NC(=O)CCO)ccc21` | 14.49% |
| 13 | `Cc1ccc(S(=O)(=O)NC(=O)COc2cccc(C(N)=O)c2)s1` | 19.44% |
| 14 | `O=C1C(NCc2nnc3n2CCCC3)CCCN1c1ccccc1` (stereo not given) | 10% |
| 15 | `Cc1ccc(OCCN(C)S(=O)(=O)N2CCOCC2)cc1` | 9.749% |
| 16 | `c1cnc(N2CCC3(COCCN(CC4CC4)C3)C2)nc1` (stereo not given) | 14.16% |
| 17 | `CN(Cc1ccsc1)Cc1ccc(C2CCCCO2)o1` (stereo not given) | 6.87% |
| 18 | `Cc1cc(C(=O)N(C)Cc2cnn(C)c2)c(NC(=O)C(C)(C)C)s1` | 14.29% |
| 19 | `COc1c(CNC(c2ccc(F)cc2)c2nccn2C)c(C)nn1C` (stereo not given) | 11.22% |
| 20 | `CCn1nc(CC(C)C)cc1C(=O)NCC(F)(F)F` | 2.817% |
| 21 | `CN1CCCC(c2n[nH]c3ncccc23)C1` (stereo not given) | 10.62% |
| 22 | `Cc1nc(CN2CCCC(c3cc(C(N)=O)[nH]n3)C2)oc1C` (stereo not given) | 20.56% |
| 23 | `CC(C)(C)OC(=O)N1CCN(S(=O)(=O)CCCC#N)C2(CCCCC2)C1` | 19.89% |
| 24 | `O=C(NCc1ccccc1Cn1cncn1)C1CC1` | 16% |
| 25 | `CC(=O)N1CC[C@@H]2O[C@H](C(=O)Nc3nc(C)cs3)C[C@@H]21` | 16.48% |
| 26 | `COc1cc(CN2CCN(c3cccc(OC)c3)C(=O)C2)cc(OC)c1` | 10.62% |
| 27 | `COCc1nc(CNC2CCN(C(C)C)CC2)no1` | 15.38% |
| 28 | `O=C1CC(c2ccncc2)C2(CCN(C(=O)c3ccc[nH]3)CC2)N1` (stereo not given) | 8.418% |
| 29 | `CCn1nc(C)c(NC(=O)C(C)C)c1C` | 12.03% |
| 30 | `Cc1ccc2nc3n(c2c1)[C@@H](CNCc1nccs1)COC3` | 11.4% |
| 31 | `CC(C)(C)c1ncc(C(=O)NCCNC(=O)Cc2ccccc2)s1` | 10.89% |
| 32 | `O=C(O)c1cc(-c2ccncc2)cc(S(=O)(=O)N2CCCCCC2)c1` | 14.37% |
| 33 | `COCCN1C[C@@H]2CCCO[C@@H]2[C@H](N(C)Cc2ccco2)C1` | 12.89% |
| 34 | `OCCNc1nccc(-c2c[nH]nc2-c2ccncc2)n1` | 8.981% |
| 35 | `Cn1c(CN2CCN(CC3CC3)CC2)nnc1C1CCC1` | 2.463% |
| 36 | `CCc1nn(C)c2[nH]nc(NC(=O)c3cccnc3NC(C)C)c12` | 11.98% |
| 37 | `COC1(CNC(=O)c2ccoc2)CCSC1` (stereo not given) | 10.06% |
| 38 | `C/N=C1/c2cc3cc(OC)ccc3n2CCN1C` | 18.34% |
| 39 | `COc1ccc(-n2nnc(C(=O)NC(C)C)c2C2CC2)cc1` | 11.5% |
| 40 | `Cc1cccc(N2CCN(C(=O)NC(C)c3nncn3C)CC2)c1C` (stereo not given) | 25.14% |
| 41 | `CC(NC(=O)c1cc2n(n1)CCCN(C(C)C)C2)c1cn2ccsc2n1` (stereo not given) | 17.18% |
| 42 | `Oc1cccc(CN2C[C@H]3CC[C@@H]2CN(Cc2ccc(F)cc2)C3)c1` | 10.65% |
| 43 | `CC(=O)N1CCCC1c1ccc(-c2c(C)noc2C)cn1` (stereo not given) | 4.452% |
| 44 | `CCC(CO)NCc1ccc(-c2ccc(F)cc2)o1` (stereo not given) | 21.05% |
| 45 | `Cc1ccc(CN2CCC(NC(=O)c3scnc3C)CC2)cc1` | 14.46% |
| 46 | `CCCN(CC(F)F)c1cc(COC)nc2ncnn12` | 16.54% |
| 47 | `CCn1ccnc1C1CCN(C(=O)Nc2ccc(OC)cc2)CC1` | 2.941% |
| 48 | `CCCc1cc(CN(C)C2CC(C)(C)NC(C)(C)C2)n[nH]1` | 22.19% |
| 49 | `Cc1nccnc1N1CC[C@@H](NC(=O)c2cnccn2)[C@H](O)C1` | 14.86% |
| 50 | `CC(C)Cc1noc(CN(C)C2CCCC2)n1` | -3.927% |
| 51 | `CN(Cc1nccn1C)C(=O)c1cccc(CCC(C)(C)O)c1` | 13.41% |
| 52 | `COCC(=O)N1CCN(C(=O)NC(C)C)CC2(CC(=O)N(C)C2)C1` (stereo not given) | 9.51% |
| 53 | `CCN1CCCC(O)(c2nc(C)c(CCOc3ccc(F)cc3)s2)CC1` (stereo not given) | 0% |
| 54 | `O=C(c1ccccc1)N1CCC2(CCCN2c2ncccn2)CC1` | 17.18% |
| 55 | `O=C(O)c1ccccc1C1CCN(C2CCN(c3ccccc3)CC2)C1` (stereo not given) | -2.941% |
| 56 | `O=C(CC1OCCc2ccccc21)NCC1(O)CCCCC1` (stereo not given) | 6.593% |
| 57 | `CC(=O)N1C[C@@H](F)[C@@H](OCc2nc3ccc(C#N)cc3[nH]2)C1` | 16.48% |
| 58 | `Cc1cccc(CS(=O)(=O)c2nnc([C@@H](N)Cc3ccccc3)o2)c1` | 5.691% |
| 59 | `CCCSc1ccccc1NC(=O)N1CCN(C(=O)c2ccc[nH]2)CC1` | 13.17% |
| 60 | `O=S(=O)(NCCCN1CC=CC1)c1cncc(Cl)c1` | 16.55% |
| 61 | `Cc1ccc(CNC2CCc3nc(C(C)C)nn3C2)o1` (stereo not given) | 8.451% |
| 62 | `Cc1nn(C)c2c(N3CCN(C(=O)C4CCCO4)CC3)ncnc12` (stereo not given) | -38.94% |
| 63 | `CSCC[C@@H]1CN2CCC[C@H]2CN1Cc1cn(C)nc1C` | 1.294% |
| 64 | `CN(C)C(=O)CO[C@H]1CN(Cc2ccc(F)cc2)[C@@H]2CCCO[C@H]12` | 11.81% |
| 65 | `Cc1ncc(-c2ccnc(N3CCCCC3)n2)c(=O)[nH]1` | 12.59% |
| 66 | `Clc1cc(NCc2nccs2)nc2[nH]ccc12` | 16.72% |

Repeated from the top, 5 entries:

Compound,inhibition
CC(Cn1cccn1)NCc1csc(Cc2ccccc2)n1 (stereo not given),15.64%
Cc1ncccc1CNCC1CCCN1c1cccnn1 (stereo not given),15.3%
CC(C)N1[C@H](CN(C)C)C[C@@H]2CN(c3ncc(F)cn3)CC[C@@H]21,-1.742%
Cc1ccoc1C(=O)N1CCc2ncnc(-c3cnn(C)c3)c2CC1,1.015%
CO[C@H]1CCN(C(=O)c2ccsc2)[C@@H]2CN(CC3CC3)C[C@H]12,15.13%